Results published in PubChem BioAssay AID540276 (National Center for Advancing Translational Sciences (NCATS), 2011).
Among all 300,000 compounds or so, about 5,400 (1.8%) were called active. The shares of active, inactive and inconclusive entries below differ from those in the screen. Calls come from the whole dose curve; tested in HEK293 cells. Where the call is inconclusive, the potency comes from a doubtful curve fit.
Potency is the fitted concentration of half-maximal effect.

Test: qHTS for inhibitors of binding or entry into cells for Marburg Virus
Conditions: Marburg virus pseudotyped entry inhibition, cell reporter; series mostly up to 37.8 µM
For COc1cccc(N2CCN(C(=O)c3ccc(CS(=O)Cc4ccc(Cl)cc4)o3)CC2)c1 (configuration not stated), the Potency was “inactive”.
For O=C(N/N=C/c1ccc2c(c1)OCO2)c1ccc2ccccc2n1, the Potency was inconclusive: 17.8 µM [activator, single point].
In the case of Nc1nc(CN2CCN(C(=O)c3ccco3)CC2)nc(Nc2cccc(Cl)c2)n1, the Potency is reported as inconclusive: 35.5 µM [inhibitor, single point].
With COc1ccc2oc(C(=O)c3ccccc3)c(N)c2c1 the Potency was inconclusive: 2.06 µM [activator, partial curve].
In the case of COC(=O)c1ccccc1NC(=O)Cn1c(=O)n(CCC(=O)NCc2ccc3c(c2)OCO3)c(=O)c2ccccc21, the Potency is reported as “inactive”.
With COc1ccc2cc3cc(C(=O)Nc4ccc5c(c4)OCCO5)oc3nc2c1 the Potency was inconclusive: 28.2 µM [inhibitor, single point].
For COc1ccc(C(=O)c2cn(CC(=O)Nc3cc(OC)cc(OC)c3)c3ccc(OC)cc3c2=O)cc1, the Potency was inconclusive: 12.6 µM [inhibitor, single point].
For CC[n+]1c(/C=C/N(C)c2ccccc2)n(-c2ccccc2)c2ccc(-c3nc4ccccc4s3)cc21, the Potency was inconclusive: 2.51 µM [inhibitor, full curve, poor fit].
With NC1=NC(=O)N2CC12 (configuration not stated) the Potency was inconclusive: 0.355 µM [inhibitor, single point].
In the case of O=C(c1ccc(Cl)cc1)C1CCCN(Cc2cccc3cccnc23)C1 (configuration not stated), the Potency is reported as inconclusive: 3.16 µM [inhibitor, partial curve, poor fit].
With Cn1c(Cc2ccccc2)nnc1SCC(=O)N1CCCCC1 the Potency was “inactive”.
With CN1CCN2c3ccccc3CC3(C(=O)N(C)C(=O)N(C)C3=O)C2C1 (configuration not stated) the Potency was inconclusive: 0.0891 µM [inhibitor, full curve, poor fit].
In the case of Cc1nc(NC(=O)c2cc3ccccc3o2)sc1C, the Potency is reported as inconclusive: 20 µM [inhibitor, partial curve, poor fit].
In the case of COc1ccc(NC(=O)C2C3C=CC(C3)C2C(=O)NCc2ccco2)c(OC)c1 (configuration not stated), the Potency is reported as inconclusive: 20 µM [activator, single point].
With O=C1C=CC(=O)N1c1ccccc1N1C(=O)C=CC1=O the Potency was inconclusive: 22.4 µM [inhibitor, single point].
In the case of Cc1ccc(C)n1-c1ccc(C(=O)N2CCOCC2)cc1, the Potency is reported as inconclusive: 14.6 µM [inhibitor, single point].
In the case of CCN(CC)C(=O)CSc1nc(O)c(Cc2ccccc2)c(=O)n1-c1ccccc1, the Potency is reported as inconclusive: 3.16 µM [inhibitor, full curve, poor fit].
For O=C(NC(=S)Nc1ccc(Br)cc1F)C1CCCCC1, the Potency was inconclusive: 25.1 µM [activator, single point].
In the case of Cc1nc2sc3c(c2c(=O)o1)CCCC3, the Potency is reported as inconclusive: 6.31 µM [activator, single point].
For COc1ccc(C(=O)N[C@H](C(=O)Nc2ccc(OC)nc2)C(C)C)cc1, the Potency was “inactive”.
In the case of CCc1cc(=O)[nH]c(SCC(=O)N2CCC(Cc3ccccc3)CC2)n1, the Potency is reported as “inactive”.
For CCc1cccc(C)c1NC(=S)NCC(c1cccnc1)N1CCOCC1 (configuration not stated), the Potency was inconclusive: 31.6 µM [activator, single point].
In the case of O=C(NCc1ccc2c(c1)OCO2)c1ccc2c(c1)N(Cc1c(F)cccc1Cl)C(=O)c1ccccc1S2, the Potency is reported as inconclusive: 11.2 µM [inhibitor, partial curve, poor fit].
In the case of CC(C)CSc1n[nH]c(=S)s1, the Potency is reported as inconclusive: 35.5 µM [activator, single point].
In the case of CCCc1nc2ccccc2c(=O)n1CC(=O)c1ccc(OC)cc1, the Potency is reported as inconclusive: 3.16 µM [inhibitor, single point].
With O=C(CCS(=O)(=O)Cc1ccccc1)Nc1nnc(C(F)(F)F)s1 the Potency was inconclusive: 25.9 µM [inhibitor, single point].
For COCCN(CC(=O)Nc1cccc(C)c1C)C(=O)c1oc2c(Cl)cccc2c1C, the Potency was “inactive”.
For Cc1ccc(S(=O)(=O)N/N=C\c2cccnc2)cc1, the Potency was “inactive”.
In the case of O=C(O)/C=C/C(=O)Nc1ccccc1C(=O)Nc1ccccc1, the Potency is reported as “inactive”.
For CC(C)(C)c1ccc(CN2N=Nc3ccccc3S2(=O)=O)cc1, the Potency was inconclusive: 35.5 µM [inhibitor, single point].
For Cc1cc(C)n(C(=O)c2cccc(S(=O)(=O)N3CCOCC3)c2)n1, the Potency was inconclusive: 20.6 µM [activator, partial curve, poor fit].
With CN1CCN(S(=O)(=O)c2cccc(C(=O)Oc3cccc(Br)c3)c2)CC1 the Potency was inconclusive: 0.112 µM [inhibitor, full curve, poor fit].
In the case of O=C(Cc1ccc(Cl)cc1)Nc1ccncc1, the Potency is reported as inconclusive: 1.78 µM [inhibitor, full curve].
In the case of CC(=O)Nc1ccc(S(=O)(=O)N(C)c2ccc(OCC(=O)Nc3ccccc3C(C)=O)cc2)cc1, the Potency is reported as inconclusive: 17.8 µM [inhibitor, single point].
In the case of CCN(CC)CCCN(Cc1cc2cc(OC)ccc2[nH]c1=O)C(=O)Nc1ccccc1, the Potency is reported as inconclusive: 14.1 µM [inhibitor, partial curve, poor fit].
In the case of O=[N+]([O-])c1ccc2c(c1)c1ccccc1n2CCO, the Potency is reported as “inactive”.
For COc1cccc(C(=O)c2c(-c3ccccc3)ncc3cc(OC)c(OC)cc23)c1, the Potency was “inactive”.
In the case of COc1ccc(C(=O)c2cc(C(C)=O)c(Nc3ccccc3)s2)cc1, the Potency is reported as inconclusive: 11.2 µM [inhibitor, partial curve, poor fit].
In the case of Cc1ccc(NC(=O)CCc2c(C)nn(-c3ccc(N4CCCCC4)nn3)c2C)cc1, the Potency is reported as inconclusive: 5.01 µM [activator, partial curve, poor fit].
For Cc1ccc(S(=O)(=O)ON2C(=O)c3ccccc3C2=O)c(C)c1, the Potency was inconclusive: 35.5 µM [inhibitor, single point].
For CC1CCCCC1NC(=O)c1ccc2c(c1)[nH]c(=O)n2C1CCCC1 (configuration not stated), the Potency was inconclusive: 20 µM [inhibitor, partial curve, poor fit].
In the case of CN(C)c1cccc(C(=O)Nc2cccc(S(=O)(=O)NC3=NCCC3)c2)c1, the Potency is reported as “inactive”.
In the case of COc1ccc(C(=O)N2CCN(C)C(C)C2)cc1OC1CCN(C(C)=O)CC1 (configuration not stated), the Potency is reported as inconclusive: 14.1 µM [activator, single point].
For CC1CC(C)CN(CC(=O)N2CCCc3c2c(=O)oc2ccc(OCc4ccccc4)cc32)C1 (configuration not stated), the Potency was active: 10 µM.
For O=c1cc(CN2CCCc3ccccc32)nc2sccn12, the Potency was “inactive”.
With O=C1CCCc2oc3c(cc(NS(=O)(=O)c4ccc5c6c(cccc46)C(=O)N5)c4ccccc43)c21 the Potency was active: 11.2 µM.
With O=C(NCCNC(=O)c1ccco1)c1ccco1 the Potency was “inactive”.
For Cc1cccc(N2CCN(C(=O)NCc3ccc(Cl)cc3)CC2)c1, the Potency was inconclusive: 23.1 µM [inhibitor, single point].
With CC(=O)Nc1ccc(NC(=O)/C=C/c2ccccc2)cc1 the Potency was inconclusive: 3.55 µM [inhibitor, partial curve, poor fit].
In the case of COc1ccccc1NC(=O)CSc1nc(=O)n(CCN2CCOCC2)c2c1CCC2, the Potency is reported as “inactive”.
With CC(Cl)C(=O)c1c[nH]c2ccccc12 (configuration not stated) the Potency was “inactive”.
For COCCCNC(=O)c1cc(=O)n(Cc2ccc(Cl)cc2)c2ccccc12, the Potency was inconclusive: 31.6 µM [inhibitor, single point].
With CCSc1nc2nccnc2c(=O)[nH]1 the Potency was inconclusive: 0.631 µM [inhibitor, full curve].
In the case of O=C(Nc1ccc(Oc2ccc3c(c2)C(=O)N(c2ccc(O)cc2)C3=O)cc1)c1cccs1, the Potency is reported as inconclusive: 1 µM [inhibitor, full curve, poor fit].
With Cn1c(CCc2ccccc2)n[nH]c1=S the Potency was inconclusive: 5.62 µM [inhibitor, single point].
In the case of COc1ccccc1N1CCN(CC(O)COc2ccc(Cl)c(C)c2)CC1 (configuration not stated), the Potency is reported as “inactive”.
With O=C(/C=C/c1ccccc1[N+](=O)[O-])Nc1cccnc1 the Potency was inconclusive: 1 µM [activator, partial curve, poor fit].
In the case of COc1ccc(Cc2nc3c([nH]2)c(=O)n(C)c(=O)n3C)cc1OC, the Potency is reported as inconclusive: 5.62 µM [inhibitor, partial curve, poor fit].
With COc1ccc(C(=O)Nc2ccc(Cl)cc2C(=O)N2CCCC(C)C2)cc1OC (configuration not stated) the Potency was inconclusive: 1.12 µM [activator, partial curve, poor fit].
For Cc1ccc(C)c(Cn2c(=O)n(CCC(=O)NCc3ccco3)c(=O)c3sccc32)c1, the Potency was inconclusive: 6.51 µM [inhibitor, single point].
In the case of Cc1ccc(-n2c(C)cc(C(=O)CSc3nnnn3C)c2C)cc1, the Potency is reported as inconclusive: 2.06 µM [inhibitor, partial curve, poor fit].
With CCCCNC(=S)Nc1ccc(C(F)(F)F)cc1 the Potency was inconclusive: 14.1 µM [inhibitor, single point].
In the case of CC(NC(=O)C12CC3CC(CC(C3)C1)C2)C(=O)N/N=C/C1=C(N2CCOCC2)C(=C\c2ccccc2)/CC1 (configuration not stated), the Potency is reported as inconclusive: 7.94 µM [inhibitor, partial curve, poor fit].
For CCOc1ccccc1NC(=O)c1nnn(CC(=O)Nc2ccc3c(c2)OCO3)c1N, the Potency was inconclusive: 5.01 µM [inhibitor, partial curve, poor fit].
For Cc1ccc(NC(=O)COc2cccc(C)c2C)cc1S(=O)(=O)N1CCCCCC1, the Potency was inconclusive: 10 µM [inhibitor, partial curve, poor fit].
With Cc1oc(-c2ccc(Cl)cc2)nc1CS(=O)CC(=O)NC1CCCCCC1 (configuration not stated) the Potency was “inactive”.
With CCOC(=O)N1CCN(S(=O)(=O)c2c(C)nn(C)c2C)CC1 the Potency was inconclusive: 7.08 µM [activator, partial curve, poor fit].
